Among the data in the supplement of paper PMC12819154, “High-throughput peptide-centric local stability assay extends protein–ligand identification to membrane proteins, tissues and bacteria” (Nature Structural & Molecular Biology, 2025) are log2 fold change values, retold here.

By UniProt entry, the sequences of proteins in these tests, tags left out. Where a name states a change or a piece, a line headed by the entry shows the natural chain unless it says otherwise.
UniProt Q9QYB8: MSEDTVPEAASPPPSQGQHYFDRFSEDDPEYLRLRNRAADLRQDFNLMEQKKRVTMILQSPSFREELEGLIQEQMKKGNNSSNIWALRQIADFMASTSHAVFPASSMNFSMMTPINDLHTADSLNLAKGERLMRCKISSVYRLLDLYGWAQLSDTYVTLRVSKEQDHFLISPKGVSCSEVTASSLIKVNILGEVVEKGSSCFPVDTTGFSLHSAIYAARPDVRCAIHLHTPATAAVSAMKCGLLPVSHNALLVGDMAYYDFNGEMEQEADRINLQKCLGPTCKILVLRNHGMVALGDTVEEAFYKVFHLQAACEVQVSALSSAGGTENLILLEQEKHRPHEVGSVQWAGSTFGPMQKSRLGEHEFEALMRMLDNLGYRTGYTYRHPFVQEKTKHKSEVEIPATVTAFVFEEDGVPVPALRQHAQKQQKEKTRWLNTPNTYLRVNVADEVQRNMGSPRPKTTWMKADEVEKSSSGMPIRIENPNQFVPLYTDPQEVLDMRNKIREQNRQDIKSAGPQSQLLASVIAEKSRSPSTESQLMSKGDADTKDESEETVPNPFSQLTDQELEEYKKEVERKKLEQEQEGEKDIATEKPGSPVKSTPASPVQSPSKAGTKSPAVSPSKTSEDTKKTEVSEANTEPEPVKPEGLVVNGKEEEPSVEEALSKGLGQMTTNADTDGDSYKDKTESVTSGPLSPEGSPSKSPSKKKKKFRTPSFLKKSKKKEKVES
UniProt Q9QZJ6: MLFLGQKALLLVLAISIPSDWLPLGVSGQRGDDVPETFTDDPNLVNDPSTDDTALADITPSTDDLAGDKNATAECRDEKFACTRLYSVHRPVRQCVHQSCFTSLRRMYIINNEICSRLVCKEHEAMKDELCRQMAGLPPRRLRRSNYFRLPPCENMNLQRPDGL
UniProt Q9R0Q4, whole entry: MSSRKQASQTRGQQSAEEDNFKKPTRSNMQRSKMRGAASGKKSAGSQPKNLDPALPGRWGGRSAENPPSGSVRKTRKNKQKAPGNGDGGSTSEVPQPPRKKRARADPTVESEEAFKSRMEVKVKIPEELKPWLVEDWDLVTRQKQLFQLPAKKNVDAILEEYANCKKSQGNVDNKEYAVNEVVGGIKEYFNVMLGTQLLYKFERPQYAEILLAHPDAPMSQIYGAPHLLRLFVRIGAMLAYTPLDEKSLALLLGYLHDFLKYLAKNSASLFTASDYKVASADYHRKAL
UniProt Q9R1L5: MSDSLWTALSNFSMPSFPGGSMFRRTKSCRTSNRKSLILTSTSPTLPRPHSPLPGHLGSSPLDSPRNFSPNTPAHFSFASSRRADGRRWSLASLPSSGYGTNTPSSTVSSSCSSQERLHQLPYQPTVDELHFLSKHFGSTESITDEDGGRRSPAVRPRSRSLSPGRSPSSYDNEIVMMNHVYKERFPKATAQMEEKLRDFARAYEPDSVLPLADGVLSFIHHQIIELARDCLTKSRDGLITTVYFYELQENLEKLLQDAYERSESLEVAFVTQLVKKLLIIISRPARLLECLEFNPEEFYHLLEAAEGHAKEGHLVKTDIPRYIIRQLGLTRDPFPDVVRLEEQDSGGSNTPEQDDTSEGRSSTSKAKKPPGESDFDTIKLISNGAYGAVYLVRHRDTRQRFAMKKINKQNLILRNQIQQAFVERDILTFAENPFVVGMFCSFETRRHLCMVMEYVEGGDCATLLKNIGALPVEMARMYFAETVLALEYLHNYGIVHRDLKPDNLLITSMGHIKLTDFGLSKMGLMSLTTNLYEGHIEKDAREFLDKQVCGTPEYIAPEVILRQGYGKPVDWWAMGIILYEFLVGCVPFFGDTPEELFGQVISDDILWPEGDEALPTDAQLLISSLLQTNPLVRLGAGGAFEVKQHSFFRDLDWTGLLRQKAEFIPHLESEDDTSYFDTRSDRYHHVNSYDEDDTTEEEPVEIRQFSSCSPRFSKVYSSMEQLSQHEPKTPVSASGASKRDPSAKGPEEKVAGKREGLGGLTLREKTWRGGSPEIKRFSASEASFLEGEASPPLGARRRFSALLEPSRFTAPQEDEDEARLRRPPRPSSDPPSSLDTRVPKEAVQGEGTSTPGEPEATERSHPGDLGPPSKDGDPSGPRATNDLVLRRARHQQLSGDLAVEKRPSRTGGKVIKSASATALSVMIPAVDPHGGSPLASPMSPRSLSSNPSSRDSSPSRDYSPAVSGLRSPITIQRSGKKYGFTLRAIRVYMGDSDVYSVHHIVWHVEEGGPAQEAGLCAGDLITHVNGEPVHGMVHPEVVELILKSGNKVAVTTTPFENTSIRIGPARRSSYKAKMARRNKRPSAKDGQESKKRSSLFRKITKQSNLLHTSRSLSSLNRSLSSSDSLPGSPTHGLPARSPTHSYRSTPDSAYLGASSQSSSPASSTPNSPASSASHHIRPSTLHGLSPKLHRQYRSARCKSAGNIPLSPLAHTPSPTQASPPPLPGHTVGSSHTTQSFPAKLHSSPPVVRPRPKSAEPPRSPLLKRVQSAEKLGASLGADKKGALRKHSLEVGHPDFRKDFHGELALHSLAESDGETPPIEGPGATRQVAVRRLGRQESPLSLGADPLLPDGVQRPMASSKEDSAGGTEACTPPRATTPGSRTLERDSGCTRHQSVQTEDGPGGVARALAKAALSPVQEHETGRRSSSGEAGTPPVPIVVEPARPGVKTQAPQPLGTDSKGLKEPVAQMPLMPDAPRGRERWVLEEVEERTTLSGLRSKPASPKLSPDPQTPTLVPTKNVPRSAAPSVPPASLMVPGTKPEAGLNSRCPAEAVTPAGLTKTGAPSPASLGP
UniProt Q9R062: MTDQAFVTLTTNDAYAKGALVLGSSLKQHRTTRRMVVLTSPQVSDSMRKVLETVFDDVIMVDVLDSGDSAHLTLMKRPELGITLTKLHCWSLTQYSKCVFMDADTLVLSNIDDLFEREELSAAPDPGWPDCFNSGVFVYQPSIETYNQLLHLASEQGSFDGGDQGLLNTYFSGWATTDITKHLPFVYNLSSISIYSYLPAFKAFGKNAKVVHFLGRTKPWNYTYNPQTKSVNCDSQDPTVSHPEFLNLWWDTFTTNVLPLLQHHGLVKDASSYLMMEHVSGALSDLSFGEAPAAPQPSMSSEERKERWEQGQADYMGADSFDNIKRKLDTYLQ
UniProt Q9QY01: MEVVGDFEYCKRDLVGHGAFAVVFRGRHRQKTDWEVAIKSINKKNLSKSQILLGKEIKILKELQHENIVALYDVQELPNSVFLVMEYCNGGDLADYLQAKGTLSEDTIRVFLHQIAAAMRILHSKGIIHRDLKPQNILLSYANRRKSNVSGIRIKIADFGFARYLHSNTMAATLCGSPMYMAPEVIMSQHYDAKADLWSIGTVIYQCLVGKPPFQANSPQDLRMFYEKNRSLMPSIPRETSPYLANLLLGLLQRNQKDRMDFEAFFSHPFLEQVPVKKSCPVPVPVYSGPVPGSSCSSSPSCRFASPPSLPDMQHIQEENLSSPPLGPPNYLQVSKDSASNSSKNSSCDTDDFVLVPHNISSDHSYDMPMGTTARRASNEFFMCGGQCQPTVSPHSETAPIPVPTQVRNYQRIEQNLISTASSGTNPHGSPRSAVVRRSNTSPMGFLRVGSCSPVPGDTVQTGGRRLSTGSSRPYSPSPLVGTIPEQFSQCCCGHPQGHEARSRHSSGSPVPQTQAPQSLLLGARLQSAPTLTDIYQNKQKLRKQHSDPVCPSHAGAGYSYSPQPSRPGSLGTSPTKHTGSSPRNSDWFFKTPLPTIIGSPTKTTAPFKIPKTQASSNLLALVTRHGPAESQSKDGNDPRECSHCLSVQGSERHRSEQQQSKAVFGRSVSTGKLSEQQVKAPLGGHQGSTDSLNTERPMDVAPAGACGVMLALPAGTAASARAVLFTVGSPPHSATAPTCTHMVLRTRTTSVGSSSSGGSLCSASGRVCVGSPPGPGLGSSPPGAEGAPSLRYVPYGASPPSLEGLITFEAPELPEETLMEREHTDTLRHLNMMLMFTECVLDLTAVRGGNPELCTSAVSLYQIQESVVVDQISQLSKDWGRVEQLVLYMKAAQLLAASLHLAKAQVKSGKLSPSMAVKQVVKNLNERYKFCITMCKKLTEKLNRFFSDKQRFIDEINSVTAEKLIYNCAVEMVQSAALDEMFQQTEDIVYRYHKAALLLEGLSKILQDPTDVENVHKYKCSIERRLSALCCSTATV
UniProt Q9WV69: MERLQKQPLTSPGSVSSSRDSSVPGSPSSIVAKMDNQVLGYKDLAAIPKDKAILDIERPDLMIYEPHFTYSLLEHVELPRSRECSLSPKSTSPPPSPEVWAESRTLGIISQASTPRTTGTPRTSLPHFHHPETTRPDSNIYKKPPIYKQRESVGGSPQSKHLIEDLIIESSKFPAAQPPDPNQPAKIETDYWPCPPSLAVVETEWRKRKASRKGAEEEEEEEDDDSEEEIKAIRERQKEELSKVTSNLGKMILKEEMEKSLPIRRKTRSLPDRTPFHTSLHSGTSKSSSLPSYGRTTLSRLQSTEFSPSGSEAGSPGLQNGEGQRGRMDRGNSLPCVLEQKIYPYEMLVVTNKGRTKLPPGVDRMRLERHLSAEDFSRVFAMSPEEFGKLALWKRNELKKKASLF
UniProt Q9R0H5: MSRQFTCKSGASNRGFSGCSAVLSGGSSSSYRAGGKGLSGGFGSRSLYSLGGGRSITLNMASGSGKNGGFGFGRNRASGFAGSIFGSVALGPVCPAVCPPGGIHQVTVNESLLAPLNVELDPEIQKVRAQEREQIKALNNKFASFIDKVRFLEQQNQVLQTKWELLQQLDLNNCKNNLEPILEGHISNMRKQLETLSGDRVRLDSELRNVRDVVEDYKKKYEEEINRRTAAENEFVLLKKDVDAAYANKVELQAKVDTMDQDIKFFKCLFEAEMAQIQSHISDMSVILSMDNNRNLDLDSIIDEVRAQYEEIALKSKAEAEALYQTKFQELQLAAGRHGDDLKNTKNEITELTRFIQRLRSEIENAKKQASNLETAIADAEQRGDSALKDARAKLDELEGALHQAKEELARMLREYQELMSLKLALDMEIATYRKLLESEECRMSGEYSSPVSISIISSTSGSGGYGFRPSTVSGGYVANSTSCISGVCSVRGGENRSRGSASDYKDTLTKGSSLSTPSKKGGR
UniProt Q9WU78: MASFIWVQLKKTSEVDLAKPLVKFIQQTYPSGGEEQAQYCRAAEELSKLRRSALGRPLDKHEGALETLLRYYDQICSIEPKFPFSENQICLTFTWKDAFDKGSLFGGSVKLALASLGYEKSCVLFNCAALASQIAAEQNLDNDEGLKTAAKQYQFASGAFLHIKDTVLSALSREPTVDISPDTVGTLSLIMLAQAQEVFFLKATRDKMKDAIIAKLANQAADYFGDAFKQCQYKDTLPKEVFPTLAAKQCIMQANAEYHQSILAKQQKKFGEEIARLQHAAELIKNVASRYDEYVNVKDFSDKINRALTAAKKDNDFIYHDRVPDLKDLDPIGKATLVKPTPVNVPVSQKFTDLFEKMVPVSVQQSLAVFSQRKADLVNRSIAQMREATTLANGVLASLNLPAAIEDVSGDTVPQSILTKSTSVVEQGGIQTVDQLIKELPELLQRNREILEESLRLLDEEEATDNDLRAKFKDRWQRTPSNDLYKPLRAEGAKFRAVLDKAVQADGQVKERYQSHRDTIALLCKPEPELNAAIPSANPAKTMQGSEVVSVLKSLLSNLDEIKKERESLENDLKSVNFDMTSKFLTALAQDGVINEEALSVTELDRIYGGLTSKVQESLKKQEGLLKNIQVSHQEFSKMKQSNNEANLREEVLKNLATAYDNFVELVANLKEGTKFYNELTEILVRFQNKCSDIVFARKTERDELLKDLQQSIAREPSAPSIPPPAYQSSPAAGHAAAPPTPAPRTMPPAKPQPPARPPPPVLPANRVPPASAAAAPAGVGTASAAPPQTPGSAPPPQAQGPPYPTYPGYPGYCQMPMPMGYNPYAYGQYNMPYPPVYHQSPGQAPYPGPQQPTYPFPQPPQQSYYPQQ
UniProt Q9R0Q1: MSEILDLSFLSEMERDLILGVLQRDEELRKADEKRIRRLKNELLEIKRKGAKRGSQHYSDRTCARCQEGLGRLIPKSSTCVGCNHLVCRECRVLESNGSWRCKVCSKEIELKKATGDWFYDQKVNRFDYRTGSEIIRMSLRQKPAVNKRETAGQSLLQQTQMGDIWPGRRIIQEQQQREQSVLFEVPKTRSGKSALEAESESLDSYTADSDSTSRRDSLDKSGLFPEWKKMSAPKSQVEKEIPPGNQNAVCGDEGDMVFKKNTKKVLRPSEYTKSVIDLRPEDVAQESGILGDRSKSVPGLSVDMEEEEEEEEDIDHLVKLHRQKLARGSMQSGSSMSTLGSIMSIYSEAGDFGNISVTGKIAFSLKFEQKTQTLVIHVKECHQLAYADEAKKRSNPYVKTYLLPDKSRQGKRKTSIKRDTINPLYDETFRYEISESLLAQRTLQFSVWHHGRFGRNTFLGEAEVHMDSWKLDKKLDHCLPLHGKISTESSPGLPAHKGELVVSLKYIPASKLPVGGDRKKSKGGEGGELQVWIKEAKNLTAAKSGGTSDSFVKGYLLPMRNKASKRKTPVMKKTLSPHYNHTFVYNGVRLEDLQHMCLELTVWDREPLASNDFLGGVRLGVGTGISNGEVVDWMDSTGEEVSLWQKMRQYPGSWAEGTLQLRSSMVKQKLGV

This is one part of the list. Most entries show no effect beyond the scatter of the controls.

Compound in the experiment: CN[C@@H]1C[C@H]2O[C@@](C)([C@@H]1OC)n1c3ccccc3c3c4c(c5c6ccccc6n2c5c31)C(=O)NC4 [staurosporine]
The experiment can be described thus: log2 fold change of tryptic peptide abundance, ligand vs vehicle (limited proteolysis) (log2 ratio); higher = more trypsin-susceptible (destabilized). Conditions: ligand concentration: 20 uM; sample: mouse liver crude lysate; replicate design: treated separately.
As to “UniProt Q9QXG4 (peptide sequence: TVYGNHTRFETTYFK, peptide start residue: 528)”, the log2 fold change was 0.16.

Consider “UniProt Q9R0B7 (peptide sequence: GSEEPEGREPDGVR, peptide start residue: 22)”, for which the log2 fold change came out at 0.472.

As to “UniProt Q9R1T4 (peptide sequence: EAEKELHEKFDR, peptide start residue: 359)”, the log2 fold change came to 0.432.

For “UniProt Q9R013 (peptide sequence: IAAWLAQK, peptide start residue: 368)”, the log2 fold change is -0.0865.

For “UniProt Q9QZD4 (peptide sequence: LYSQCLAMSR, peptide start residue: 742)”, the log2 fold change came to 0.4.

As to “UniProt Q9QYB8 (peptide sequence: QDFNLMEQK, peptide start residue: 43)”, the log2 fold change came out at 0.234.

On to “UniProt Q9WV96 (peptide sequence: LMAAYVHLMPALVQR, peptide start residue: 60)”, for which the log2 fold change stood at 0.153.

For the target “UniProt Q9R060 (peptide sequence: HKLLVLSGK, peptide start residue: 55)”, the log2 fold change is 0.371.

Regarding “UniProt Q9WV95 (peptide sequence: AVECVESTGR, peptide start residue: 58)”, the log2 fold change is -0.565.

As for “UniProt Q9QZJ6 (peptide sequence: LVCKEHEAMKDELCR, peptide start residue: 118)”, the log2 fold change stood at 0.345.

For “UniProt Q9WU03 (peptide sequence: TVWSTADDKEQLVK, peptide start residue: 234)”, the log2 fold change was -0.0433.

As for “UniProt Q9R123 (peptide sequence: DLKGCPIFWMEKDI, peptide start residue: 301)”, the log2 fold change was -0.787.

Consider “UniProt Q9WV86 (peptide sequence: IEGLTPEEIR, peptide start residue: 437)”, for which the log2 fold change was -0.415.

For “UniProt Q9R0Q4 (peptide sequence: ARADPTVESEEAFK, peptide start residue: 103)”, the log2 fold change was -0.491.

With “UniProt Q9QXX8 (peptide sequence: SKWENQR, peptide start residue: 409)”, the log2 fold change was -0.441.

In the case of “UniProt Q9QYC0 (peptide sequence: GSEENLDETR, peptide start residue: 585)”, the log2 fold change came to 0.0966.

As to “UniProt Q9QY24 (peptide sequence: ILQVLSDDGGPVKIGQLVK, peptide start residue: 18)”, the log2 fold change was -0.571.

As to “UniProt Q9R1L5 (peptide sequence: TQAPQPLGTDSK, peptide start residue: 1448)”, the log2 fold change was 0.0768.

As for “UniProt Q9R0Q9 (peptide sequence: LLQAATNYR, peptide start residue: 170)”, the log2 fold change was 0.192.

Turning to “UniProt Q9R182 (peptide sequence: ILANGLLQLGHGLK, peptide start residue: 45)”, the log2 fold change was determined as 0.253.

Regarding “UniProt Q9QXK3 (peptide sequence: LFQSNDQTLR, peptide start residue: 76)”, the log2 fold change is -0.375.

As for “UniProt Q9WUK2 (peptide sequence: SLRVDIAEGR, peptide start residue: 110)”, the log2 fold change was 0.284.

Regarding “UniProt Q9WUF3 (peptide sequence: KNYMKFK, peptide start residue: 1033)”, the log2 fold change was 0.136.

Consider “UniProt Q9WUM3 (peptide sequence: NVLSDSRPASYSR, peptide start residue: 410)”, for which the log2 fold change was -0.0704.

Turning to “UniProt Q9R0Q3 (peptide sequence: HEQEYMEVR, peptide start residue: 146)”, the log2 fold change is -0.686.

For the target “UniProt Q9QYY9 (peptide sequence: CKLCLSPLTNLCGK, peptide start residue: 101)”, the log2 fold change was -0.224.

Turning to “UniProt Q9R062 (peptide sequence: TKPWNYTYNPQTK, peptide start residue: 217)”, the log2 fold change was -0.0743.

As to “UniProt Q9R0A0 (peptide sequence: VQELAHELATAK, peptide start residue: 184)”, the log2 fold change is 0.127.

“UniProt Q9WUE4 (peptide sequence: TGMSYHELDER, peptide start residue: 358)”: the log2 fold change is -0.146.

In the case of “UniProt Q9WV30 (peptide sequence: EISSPARPCSFEEAMK, peptide start residue: 557)”, the log2 fold change is 0.268.

As to “UniProt Q9R059 (peptide sequence: TLTQGGVTYR, peptide start residue: 168)”, the log2 fold change was -0.115.

As for “UniProt Q9QY01 (peptide sequence: SLMPSIPR, peptide start residue: 231)”, the log2 fold change was -0.615.

With “UniProt Q9R0M4 (peptide sequence: RIIIETK, peptide start residue: 357)”, the log2 fold change was -0.268.

In the case of “UniProt Q9WV69 (peptide sequence: TSLPHFHHPETTRPDSNIYK, peptide start residue: 123)”, the log2 fold change was -0.205.

“UniProt Q9R0Q7 (peptide sequence: KGESGQSWPRLTK, peptide start residue: 79)”: the log2 fold change was -0.368.

For the target “UniProt Q9R0H5 (peptide sequence: TAAENEFVLLKK, peptide start residue: 182)”, the log2 fold change was -0.773.

For “UniProt Q9QZ85 (peptide sequence: KIISQEILNLIELR, peptide start residue: 32)”, the log2 fold change is -0.579.

On to “UniProt Q9WU78 (peptide sequence: TMQGSEVVSVLK, peptide start residue: 542)”, for which the log2 fold change is -0.185.

With “UniProt Q9R0Q1 (peptide sequence: SSTCVGCNHLVCRECR, peptide start residue: 77)”, the log2 fold change turned out to be 0.231.

Take “UniProt Q9QYJ0 (peptide sequence: EYHPDKNPNAGDKFK, peptide start residue: 34)”: the log2 fold change was 0.176.
